In ChEMBL document CHEMBL3414553, “Novel imidazo[2,1-b]-1,3,4-thiadiazoles as promising antifungal agents against clinical isolate of Cryptococcus neoformans” (2015):
In brackets after ≈: the same amount, converted by molar mass.

Tested on: Mycobacterium tuberculosis
Assay: Antimicrobial activity against Mycobacterium tuberculosis H37Rv after 24 hrs by two-fold broth microdilution method
Format: functional

CO[C@H]1/C=C/O[C@@]2(C)Oc3c(C)c(O)c4c(O)c(c(/C=N/N5CCN(C)CC5)c(O)c4c3C2=O)NC(=O)/C(C)=C\C=C\[C@H](C)[C@H](O)[C@@H](C)[C@@H](O)[C@@H](C)[C@H](OC(C)=O)[C@@H]1C [RIFAMPIN]
MIC: 6.7 µM (≈ 5.51 µg/mL)
